Experimental data published in PMC11785899 (Cellular and Molecular Life Sciences: CMLS, 2025).
pKd: −log10 of the molar value.

Protein sequences, listed by entry. Tags and fused reporters are not part of them. Residues count along the entry.
UniProt Q9UHC7, 264-482: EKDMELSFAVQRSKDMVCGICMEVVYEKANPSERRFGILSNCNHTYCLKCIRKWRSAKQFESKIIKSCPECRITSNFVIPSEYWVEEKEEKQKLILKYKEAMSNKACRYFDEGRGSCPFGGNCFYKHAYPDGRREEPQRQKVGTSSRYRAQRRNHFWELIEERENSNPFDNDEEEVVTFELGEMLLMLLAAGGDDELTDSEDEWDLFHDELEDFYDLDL

Target: His/MKRN1 264–482 (MKRN1 C-terminal fragment) (Homo sapiens, UniProt Q9UHC7)
Experiment: biochemical

pKd: 5.12
Compound: CC(C)(C)c1ccc(C(=O)CCCN2CCC(OC(c3ccccc3)c3ccccc3)CC2)cc1 [ebastine]
